Values from PubChem BioAssay AID652259 (Drosophila RNAi Screening Center, 2013).
Assay: 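Knock-downs that push a Wingless-driven reporter up or down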 (primary screen). Cells: Drosophila clone 8 imaginal disc epithelial cells. Reagents: long dsRNA against Drosophila genes. Conditions: pathway stimulated by co-transfected Wingless expression plasmid. Measurement: 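Firefly luciferase from a tcf-site Wingless reporter, measured alongside co-transfected Renilla luciferase that tracks transfection; pathway stimulated by a Wingless plasmid; the firefly-to-Renilla ratio is not deposited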. Direction: firefly reporter light: higher = more Wg reporter light, before normalisation; Renilla control light: higher = more transfected or surviving cells. Call rule: 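a knock-down is a candidate when at least two out of four statistical tests show it departing from its plate mean; one test alone signals a weak candidate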. Calls: active = candidate regulator (raises or lowers reporter); inactive = not a candidate.
The screen tested about 22,000 reagents; shown is an unselected part of those that have a named target and a result. Over the whole deposit, 233 (1.1%) are marked active. 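Light values are raw, unnormalised plate reads; the ratio scores behind the reporter calls were not deposited.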 Names joined by + are all predicted targets of the reagent. The record does not give: the amount of reagent, the time to read-out, the dose of the treatment.

The opening 5 records, ahead of the listing:
| target | PubChem SID | reporter change call, replicate 1 | firefly reporter light, replicate 1 | firefly reporter light, replicate 2 | Renilla control light, replicate 1 | Renilla control light, replicate 2 | call |
| --- | --- | --- | --- | --- | --- | --- | --- |
| Aven | SID104199485 | – | 16544 | – | 10741 | – | inactive |
| CheB38a | SID104182997 | – | 2260 | 7005 | 637 | 2747 | inactive |
| CG7248 | SID104190580 | – | 8024 | – | 3728 | – | inactive |
| CG15601 | SID104199462 | – | 25704 | – | 8786 | – | inactive |
| kto | SID104190775 | – | 4534 | – | 1952 | – | inactive |

The list itself, from the start:
| target | PubChem SID | reporter change call, replicate 1 | firefly reporter light, replicate 1 | firefly reporter light, replicate 2 | Renilla control light, replicate 1 | Renilla control light, replicate 2 | call |
| --- | --- | --- | --- | --- | --- | --- | --- |
| Aven | SID104199485 | – | 16544 | – | 10741 | – | inactive |
| CheB38a | SID104182997 | – | 2260 | 7005 | 637 | 2747 | inactive |
| CG7248 | SID104190580 | – | 8024 | – | 3728 | – | inactive |
| CG15601 | SID104199462 | – | 25704 | – | 8786 | – | inactive |
| kto | SID104190775 | – | 4534 | – | 1952 | – | inactive |
| Csas | SID104201869 | – | 3.82e5 | 4.39e5 | 1.22e5 | 1.41e5 | inactive |
| CG17287 | SID104186451 | – | 5012 | – | 2253 | – | inactive |
| Nup37 | SID104194211 | – | 21213 | – | 18368 | – | inactive |
| CG1265 | SID104188080 | – | 9274 | – | 3639 | – | inactive |
| GMF | SID104181720 | – | 13904 | – | 6276 | – | inactive |
| prtp | SID104199596 | – | 4951 | 8843 | 1708 | 4646 | inactive |
| prtp | SID104201947 | – | 7.15e5 | 6.39e5 | 2.76e5 | 1.60e5 | inactive |
| MstProx | SID104192250 | – | 2967 | – | 1249 | – | inactive |
| MstProx | SID104192393 | – | 10329 | – | 3587 | – | inactive |
| CG11085 | SID104199166 | – | 26020 | – | 14376 | – | inactive |
| CG11085 | SID104202191 | – | 6.34e5 | 6.12e5 | 1.60e5 | 1.79e5 | inactive |
| Send1 | SID104180274 | – | 2522 | 3610 | 1122 | 1878 | inactive |
| mge | SID104188513 | – | 9127 | – | 3350 | – | inactive |
| bon | SID104196706 | Wg reporter activity raised | 60055 | – | 4112 | – | active |
| CG7448 (retired record) | SID104191620 | – | 7996 | – | 3480 | – | inactive |
| CG7448 (retired record) | SID104201939 | – | 5.40e5 | 5.88e5 | 2.58e5 | 2.75e5 | inactive |
| Fs(2)Ket | SID104183120 | Wg reporter activity raised | 17600 | – | 930 | – | active |
| CG31287 | SID104192930 | – | 2459 | – | 482 | – | inactive |
| Spn88Eb | SID104195885 | – | 5257 | – | 1578 | – | inactive |
| CG9297 | SID104196261 | – | 6178 | – | 3355 | – | inactive |
| pll | SID104196818 | – | 3217 | 8758 | 1232 | 2458 | inactive |
| PolrMT | SID104180452 | – | 9456 | – | 2840 | – | inactive |
| CG10749 | SID104189590 | – | 3244 | – | 1880 | – | inactive |
| alpha-Est9 | SID104192413 | – | 16732 | – | 3524 | – | inactive |
| CG12992 | SID104199304 | – | 19963 | – | 8192 | – | inactive |
| slif | SID104191427 | – | 10300 | – | 4487 | – | inactive |
| Rpt2 | SID104196591 | – | 3795 | 7173 | 745 | 1414 | inactive |
| CG9147 | SID104182939 | – | 3317 | 6163 | 876 | 1993 | inactive |
| dati | SID104196920 | – | 2025 | 6275 | 1043 | 1783 | inactive |
| dati | SID104196932 | – | 15205 | – | 14121 | – | inactive |
| dati | SID104196945 | – | 20019 | – | 16819 | – | inactive |
| mi | SID104184290 | – | 3725 | – | 1734 | – | inactive |
| CG9782 | SID104198937 | – | 4240 | – | 899 | – | inactive |
| CG9782 | SID104200001 | – | 26897 | – | 10744 | – | inactive |
| oxt | SID104188314 | – | 13803 | – | 4288 | – | inactive |
| CG9135 | SID104182936 | – | 8341 | – | 4251 | – | inactive |
| lncRNA:CR31386 | SID104202133 | – | 6.73e5 | 7.10e5 | 2.36e5 | 1.89e5 | inactive |
| tank | SID104180253 | – | 3201 | 5944 | 957 | 2326 | inactive |
| Usp5 | SID104188036 | – | 8246 | – | 4112 | – | inactive |
| CG33060 | SID104189731 | – | 7355 | – | 2786 | – | inactive |
| CG30020 | SID104186044 | – | 2482 | – | 779 | – | inactive |
| CG30020 | SID104186522 | – | 2333 | 6005 | 1160 | 3704 | inactive |
| CG12617 | SID104181968 | – | 5475 | 10786 | 784 | 2571 | inactive |
| Vap33 | SID104198176 | – | 4048 | 9095 | 2042 | 2977 | inactive |
| Paip2 | SID104194296 | – | 9389 | – | 3322 | – | inactive |
| CG32487 | SID104201414 | – | 2.26e5 | 2.56e5 | 1.30e5 | 89167 | inactive |
| CG17477 | SID104195031 | – | 17271 | – | 3434 | – | inactive |
| tobi | SID104194227 | – | 15984 | – | 14977 | – | inactive |
| Mvl | SID104196544 | – | 4048 | 5688 | 1066 | 1600 | inactive |
| NaPi-III | SID104190685 | – | 2816 | – | 1212 | – | inactive |
| NaPi-III | SID104190686 | Wg reporter activity raised | 9132 | – | 886 | – | active |
| NaPi-III | SID104202310 | – | 5.93e5 | 6.82e5 | 2.27e5 | 2.00e5 | inactive |
| CG3631 | SID104195295 | – | 8867 | – | 3993 | – | inactive |
| Spn42Dd | SID104184816 | – | 2952 | 10659 | 123 | 5168 | inactive |
| Spn42Dd | SID104201636 | – | 5.79e5 | 4.81e5 | 2.28e5 | 2.30e5 | inactive |
| CG13989 | SID104182113 | – | 2504 | 5627 | 692 | 2384 | inactive |
| CG12699 | SID104185954 | – | 9780 | – | 2449 | – | inactive |
| Send2 | SID104181698 | – | 2400 | 9445 | 1145 | 3192 | inactive |
| Ir94g | SID104195023 | – | 22737 | – | 20873 | – | inactive |
| CG13409 | SID104194377 | – | 35408 | – | 6163 | – | inactive |
| CG5641 | SID104195644 | – | 8979 | – | 2896 | – | inactive |
| Nrd1 | SID104199622 | – | 2059 | 5559 | 840 | 2284 | inactive |
| CG15475 | SID104182278 | – | 2397 | 7243 | 709 | 2669 | inactive |
| HP1b | SID104198210 | – | 21112 | – | 14168 | – | inactive |
| CG15478 | SID104197849 | – | 24714 | – | 15393 | – | inactive |
| CG13862 | SID104194504 | – | 35360 | – | 6272 | – | inactive |
| CG9825 | SID104184361 | – | 2128 | 6400 | 684 | 2541 | inactive |
| flz | SID104186901 | – | 5013 | 6856 | 1248 | 2832 | inactive |
| RpL15 | SID104200755 | – | 20064 | – | 8323 | – | inactive |
| RpS30 | SID104194911 | – | 8071 | – | 1527 | – | inactive |
| eIF5B | SID104188221 | – | 2672 | – | 1827 | – | inactive |
| eIF5B | SID104188502 | Wg reporter activity lowered | 2092 | – | 2000 | – | inactive |
| asRNA:CR42743 + CG34162 | SID104180982 | – | 17484 | – | 9411 | – | inactive |
| Ctr1A | SID104198128 | – | 20696 | – | 10121 | – | inactive |
| CG12519 | SID104190103 | – | 12698 | – | 4209 | – | inactive |
| CG12519 | SID104201264 | – | 3.85e5 | 4.36e5 | 97310 | 94870 | inactive |
| CG7763 | SID104186835 | – | 4864 | – | 2084 | – | inactive |
| Blos2 | SID104189939 | – | 6470 | – | 2387 | – | inactive |
| tap | SID104191194 | – | 6624 | – | 2506 | – | inactive |
| CG8001 | SID104188403 | – | 16864 | – | 5584 | – | inactive |
| CG3687 | SID104186642 | – | 4736 | – | 2210 | – | inactive |
| CG42822 | SID104193024 | – | 3576 | – | 1548 | – | inactive |
| CheB38b | SID104202233 | – | 7.60e5 | 6.18e5 | 3.27e5 | 360 | inactive |
| CG13723 | SID104189844 | – | 8583 | – | 3040 | – | inactive |
| CG12279 | SID104194287 | – | 24317 | – | 5645 | – | inactive |
| CG11808 | SID104185880 | – | 15353 | – | 2885 | – | inactive |
| CG5160 | SID104182613 | – | 2394 | 6657 | 800 | 2615 | inactive |
| CG3386 | SID104188358 | – | 6273 | – | 3536 | – | inactive |
